Measurements reported in paper doi:10.1101/2023.01.03.522574.
Results are given in words; binding and its absence hold for the method and conditions named. In cells and extracts the contact can be indirect. A yes stands for co-enrichment or nearness to the bait. Other partners may have been found. No binding means not detected with the bait.

Sequences of proteins named here, by UniProt entry; tags and fusion partners are left off. Residues count along the entry.
UniProt P35968, residues 20-1356: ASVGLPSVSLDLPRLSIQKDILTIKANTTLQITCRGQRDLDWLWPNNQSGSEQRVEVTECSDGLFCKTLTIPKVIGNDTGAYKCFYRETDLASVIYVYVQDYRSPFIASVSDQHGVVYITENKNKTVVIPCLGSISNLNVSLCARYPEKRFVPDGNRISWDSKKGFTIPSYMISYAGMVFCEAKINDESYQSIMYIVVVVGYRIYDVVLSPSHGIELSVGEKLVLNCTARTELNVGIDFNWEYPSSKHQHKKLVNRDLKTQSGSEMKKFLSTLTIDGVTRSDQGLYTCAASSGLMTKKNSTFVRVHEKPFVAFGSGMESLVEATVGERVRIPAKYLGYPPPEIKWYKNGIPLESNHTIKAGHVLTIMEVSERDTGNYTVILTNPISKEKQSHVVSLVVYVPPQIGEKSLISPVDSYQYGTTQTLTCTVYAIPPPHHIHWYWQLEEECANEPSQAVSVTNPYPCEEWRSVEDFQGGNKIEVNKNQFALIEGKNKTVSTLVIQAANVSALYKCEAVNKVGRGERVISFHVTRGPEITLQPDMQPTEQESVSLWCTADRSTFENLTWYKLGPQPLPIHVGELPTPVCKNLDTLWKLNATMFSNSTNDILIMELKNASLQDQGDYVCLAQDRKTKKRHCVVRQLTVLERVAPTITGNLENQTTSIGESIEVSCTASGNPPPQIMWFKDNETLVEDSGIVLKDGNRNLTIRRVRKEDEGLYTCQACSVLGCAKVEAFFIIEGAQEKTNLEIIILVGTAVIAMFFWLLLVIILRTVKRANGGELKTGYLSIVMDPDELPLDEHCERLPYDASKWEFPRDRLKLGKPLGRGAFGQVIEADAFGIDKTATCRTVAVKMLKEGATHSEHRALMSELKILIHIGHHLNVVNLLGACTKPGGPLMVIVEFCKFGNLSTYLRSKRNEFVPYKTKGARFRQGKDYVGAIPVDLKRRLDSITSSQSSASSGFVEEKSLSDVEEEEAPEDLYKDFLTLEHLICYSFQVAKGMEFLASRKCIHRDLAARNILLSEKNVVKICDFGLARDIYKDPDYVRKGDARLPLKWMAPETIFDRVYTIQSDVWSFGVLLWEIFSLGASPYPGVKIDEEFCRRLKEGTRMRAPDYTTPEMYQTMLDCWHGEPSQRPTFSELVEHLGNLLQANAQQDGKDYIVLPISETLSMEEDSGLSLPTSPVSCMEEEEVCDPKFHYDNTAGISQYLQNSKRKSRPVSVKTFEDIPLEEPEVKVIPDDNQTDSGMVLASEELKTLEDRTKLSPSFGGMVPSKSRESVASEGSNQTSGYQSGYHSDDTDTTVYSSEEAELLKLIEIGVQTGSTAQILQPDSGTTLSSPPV
UniProt Q92692, residues 32-538: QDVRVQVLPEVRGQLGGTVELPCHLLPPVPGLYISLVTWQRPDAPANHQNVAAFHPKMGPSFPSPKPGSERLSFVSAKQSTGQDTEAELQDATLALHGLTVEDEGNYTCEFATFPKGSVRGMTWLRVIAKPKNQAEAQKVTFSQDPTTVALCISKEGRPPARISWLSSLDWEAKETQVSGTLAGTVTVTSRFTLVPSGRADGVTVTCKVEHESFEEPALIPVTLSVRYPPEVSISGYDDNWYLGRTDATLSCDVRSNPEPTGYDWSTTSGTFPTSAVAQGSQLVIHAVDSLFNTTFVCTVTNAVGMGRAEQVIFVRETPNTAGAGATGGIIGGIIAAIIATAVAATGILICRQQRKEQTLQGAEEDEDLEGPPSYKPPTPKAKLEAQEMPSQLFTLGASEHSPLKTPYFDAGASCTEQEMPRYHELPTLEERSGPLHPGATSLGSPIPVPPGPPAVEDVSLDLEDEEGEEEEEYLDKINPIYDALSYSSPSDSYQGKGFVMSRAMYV

Molecular target: T1, SCRB1 variant 1 (V1), overexpressed in EA.hy926 cells (human) (UniProt Q8WTV0)
T1 sequence: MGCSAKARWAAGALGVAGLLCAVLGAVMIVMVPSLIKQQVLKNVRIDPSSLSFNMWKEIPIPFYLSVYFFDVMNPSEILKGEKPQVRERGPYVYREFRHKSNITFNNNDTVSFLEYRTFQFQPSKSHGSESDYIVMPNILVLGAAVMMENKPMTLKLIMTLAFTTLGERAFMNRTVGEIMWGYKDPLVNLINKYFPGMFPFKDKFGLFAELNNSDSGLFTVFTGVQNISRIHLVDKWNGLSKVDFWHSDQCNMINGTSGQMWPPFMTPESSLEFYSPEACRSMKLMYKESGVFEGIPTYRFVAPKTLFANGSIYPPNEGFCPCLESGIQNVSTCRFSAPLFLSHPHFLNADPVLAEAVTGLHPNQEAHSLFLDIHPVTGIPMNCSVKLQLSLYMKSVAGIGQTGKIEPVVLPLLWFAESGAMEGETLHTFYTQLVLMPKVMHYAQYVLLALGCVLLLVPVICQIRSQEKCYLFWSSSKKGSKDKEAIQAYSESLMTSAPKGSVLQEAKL
Assay: proximity labelling

binding | Substance
no binding | Vascular endothelial growth factor receptor 2 (VGFR2) (from UniProt P35968 20-1356)
no binding | Nectin-2 (NECT2) (from UniProt Q92692 32-538) (receptor)
